This is an account of results in publication PMC6269430.

By UniProt entry, the sequences of proteins in these tests, tags left out.
UniProt Q02248: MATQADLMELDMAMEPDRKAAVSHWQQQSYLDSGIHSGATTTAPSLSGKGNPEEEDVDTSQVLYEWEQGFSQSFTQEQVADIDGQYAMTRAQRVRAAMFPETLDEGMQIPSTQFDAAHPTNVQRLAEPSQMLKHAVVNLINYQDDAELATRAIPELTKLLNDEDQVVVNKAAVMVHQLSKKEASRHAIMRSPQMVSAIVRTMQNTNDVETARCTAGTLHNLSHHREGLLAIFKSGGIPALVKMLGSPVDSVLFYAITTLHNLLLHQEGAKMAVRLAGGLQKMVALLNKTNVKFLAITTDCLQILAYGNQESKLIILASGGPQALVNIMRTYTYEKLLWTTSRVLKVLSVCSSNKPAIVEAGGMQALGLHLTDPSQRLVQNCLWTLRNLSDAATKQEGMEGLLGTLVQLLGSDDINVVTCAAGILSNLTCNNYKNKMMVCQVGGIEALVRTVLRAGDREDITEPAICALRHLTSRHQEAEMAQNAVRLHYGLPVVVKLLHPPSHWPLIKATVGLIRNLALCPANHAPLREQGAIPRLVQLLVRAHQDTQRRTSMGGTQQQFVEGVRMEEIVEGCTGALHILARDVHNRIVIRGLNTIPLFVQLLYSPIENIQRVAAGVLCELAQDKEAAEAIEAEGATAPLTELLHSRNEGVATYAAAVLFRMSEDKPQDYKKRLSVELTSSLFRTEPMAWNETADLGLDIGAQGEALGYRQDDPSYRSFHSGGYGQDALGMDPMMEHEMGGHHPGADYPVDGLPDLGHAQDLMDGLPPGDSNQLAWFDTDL
UniProt Q99LG0: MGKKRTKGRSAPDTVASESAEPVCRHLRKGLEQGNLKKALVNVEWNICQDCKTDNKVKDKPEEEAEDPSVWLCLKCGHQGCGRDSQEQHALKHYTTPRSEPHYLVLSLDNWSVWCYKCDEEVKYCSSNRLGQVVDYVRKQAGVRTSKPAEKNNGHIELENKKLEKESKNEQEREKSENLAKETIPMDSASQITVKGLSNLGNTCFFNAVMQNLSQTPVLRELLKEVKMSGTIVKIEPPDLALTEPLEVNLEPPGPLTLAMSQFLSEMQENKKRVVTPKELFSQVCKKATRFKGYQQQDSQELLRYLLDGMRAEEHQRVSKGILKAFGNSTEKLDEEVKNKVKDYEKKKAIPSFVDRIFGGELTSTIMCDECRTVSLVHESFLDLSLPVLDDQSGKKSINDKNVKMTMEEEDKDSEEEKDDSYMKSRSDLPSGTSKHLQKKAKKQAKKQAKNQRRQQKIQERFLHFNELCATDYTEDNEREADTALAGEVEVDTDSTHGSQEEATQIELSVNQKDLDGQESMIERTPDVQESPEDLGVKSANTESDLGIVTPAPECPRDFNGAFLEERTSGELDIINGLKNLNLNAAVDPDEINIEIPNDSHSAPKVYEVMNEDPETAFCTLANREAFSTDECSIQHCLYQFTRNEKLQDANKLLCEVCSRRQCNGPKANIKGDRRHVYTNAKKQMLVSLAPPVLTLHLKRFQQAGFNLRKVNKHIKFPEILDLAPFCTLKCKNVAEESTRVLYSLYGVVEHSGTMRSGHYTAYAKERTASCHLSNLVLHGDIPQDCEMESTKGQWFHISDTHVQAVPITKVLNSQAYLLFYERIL

The target of this assay is β-Catenin (mouse (endogenous in MEF)) (UniProt Q02248). As to the kind of experiment: co-IP; Pierce Co-IP kit; 10 ug antibody to USP16 or to β-catenin (control: rabbit IgG) coupled to AminoLink Plus resin; 1 mg precleared MEF P2 lysate, 4 °C overnight; immunoblot.

Results are given in words; binding and its absence hold for the method and conditions named. In cells and extracts the contact can be indirect.

Turning to “Usp16 (from UniProt Q99LG0 1-825) (enzyme)”, the binding result was “no binding”.
